Reference: article PMC7862700
The list shows a part of the results, in another mix than the full data. At the low end of the ranking, values are background and their order means little.

The chains behind the UniProt entries cited, without tags or fusion partners. Where a name states a change or a piece, a line headed by the entry shows the natural chain unless it says otherwise.
UniProt Q9Y603: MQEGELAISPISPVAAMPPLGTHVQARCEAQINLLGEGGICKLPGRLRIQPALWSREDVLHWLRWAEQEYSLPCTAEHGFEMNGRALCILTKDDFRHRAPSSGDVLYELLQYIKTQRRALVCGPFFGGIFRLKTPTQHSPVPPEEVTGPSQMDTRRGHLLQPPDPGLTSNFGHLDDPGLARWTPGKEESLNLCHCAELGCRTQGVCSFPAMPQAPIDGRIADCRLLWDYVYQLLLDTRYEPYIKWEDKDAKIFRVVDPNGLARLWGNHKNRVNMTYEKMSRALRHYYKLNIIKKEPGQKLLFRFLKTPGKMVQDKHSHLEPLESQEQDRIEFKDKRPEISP

What follows are sequences tested against ETV7 (UniProt Q9Y603) (assay: DAPPL (digital affinity profiling via proximity ligation, sequencing)). Conditions: 10 mM Tris-HCl pH 7.5, 50 mM NaCl, 1 mM DTT, 4% glycerol, room temperature, 30 min; GST-TFs on glutathione beads, 16-mer random dsDNA library, 0.1% …; high values mean tight binding; double strand, one strand shown; scale: fold enrichment (6-mer frequency, TF over GST control).

Sequence	binding signal
ATGCGG	1.25
ATGGCC	1.44
GAAATC	1.46
GGAACA	1.03
CCGTAA	0.979
CCTGAT	1.29
TAACCC	1.31
TGGACC	1.03
ACCACC	0.995
AAAAGA	1.1
CTTAGA	1.07
AATGCA	1.3
TTGCGT	0.963
CACGAA	1.16
TGCACT	1.42
ACCGAA	0.968
TTTACG	1.25
TTAAAC	1.14
CGCCCG	1.08
TGGCTT	1.31

2 entries from above in another layout:

| Sequence | binding signal |
| --- | --- |
| CTTAGA | 1.07 |
| AATGCA | 1.3 |

Later entries:

Sequence	binding signal
ACTTCC	7.8
GTTTAC	1.22
TTCCTC	1.96
GGATCC	0.907
GTCTCA	1.13
AAAACT	1.29
TCCACA	1.17
TCTACT	1.32
CCTCCC	1.44
GCCTCC	1.29
CCTCTA	1.36
ACTTTG	1.11
GTTAAC	1.24
TATAAC	1.26
CCTTGG	1.22
TGCCCG	1.34
CCACGC	1.15
TACGTA	1.15
ATACTA	1.14
